From the supplement of paper PMC10849652
This is one part of the list.

Chains of the proteins cited; added tags and fusions are not shown. Lines headed by an entry give the natural chain unless they say otherwise; changes in a name come on top.
UniProt P17812: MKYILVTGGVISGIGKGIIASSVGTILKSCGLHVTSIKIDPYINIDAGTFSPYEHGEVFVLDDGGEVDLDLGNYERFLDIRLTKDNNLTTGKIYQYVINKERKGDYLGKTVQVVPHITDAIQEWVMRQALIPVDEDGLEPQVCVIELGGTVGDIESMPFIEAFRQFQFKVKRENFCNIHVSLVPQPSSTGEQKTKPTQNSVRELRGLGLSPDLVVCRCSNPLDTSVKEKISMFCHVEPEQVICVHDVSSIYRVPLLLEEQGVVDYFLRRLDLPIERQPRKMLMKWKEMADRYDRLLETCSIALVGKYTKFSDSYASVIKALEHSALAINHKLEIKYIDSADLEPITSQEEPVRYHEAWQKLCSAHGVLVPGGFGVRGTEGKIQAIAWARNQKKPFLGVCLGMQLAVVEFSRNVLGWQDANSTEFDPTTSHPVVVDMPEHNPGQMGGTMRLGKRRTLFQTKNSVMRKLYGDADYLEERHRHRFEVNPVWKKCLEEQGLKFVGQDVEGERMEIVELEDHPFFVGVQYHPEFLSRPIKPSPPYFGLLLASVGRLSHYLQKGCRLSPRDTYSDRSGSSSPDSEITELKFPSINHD
UniProt P01036: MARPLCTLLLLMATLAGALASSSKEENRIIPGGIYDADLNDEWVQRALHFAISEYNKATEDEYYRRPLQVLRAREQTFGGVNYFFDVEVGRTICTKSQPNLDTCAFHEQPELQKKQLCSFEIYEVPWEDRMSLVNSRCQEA
UniProt Q9P0U4, whole entry, looked up: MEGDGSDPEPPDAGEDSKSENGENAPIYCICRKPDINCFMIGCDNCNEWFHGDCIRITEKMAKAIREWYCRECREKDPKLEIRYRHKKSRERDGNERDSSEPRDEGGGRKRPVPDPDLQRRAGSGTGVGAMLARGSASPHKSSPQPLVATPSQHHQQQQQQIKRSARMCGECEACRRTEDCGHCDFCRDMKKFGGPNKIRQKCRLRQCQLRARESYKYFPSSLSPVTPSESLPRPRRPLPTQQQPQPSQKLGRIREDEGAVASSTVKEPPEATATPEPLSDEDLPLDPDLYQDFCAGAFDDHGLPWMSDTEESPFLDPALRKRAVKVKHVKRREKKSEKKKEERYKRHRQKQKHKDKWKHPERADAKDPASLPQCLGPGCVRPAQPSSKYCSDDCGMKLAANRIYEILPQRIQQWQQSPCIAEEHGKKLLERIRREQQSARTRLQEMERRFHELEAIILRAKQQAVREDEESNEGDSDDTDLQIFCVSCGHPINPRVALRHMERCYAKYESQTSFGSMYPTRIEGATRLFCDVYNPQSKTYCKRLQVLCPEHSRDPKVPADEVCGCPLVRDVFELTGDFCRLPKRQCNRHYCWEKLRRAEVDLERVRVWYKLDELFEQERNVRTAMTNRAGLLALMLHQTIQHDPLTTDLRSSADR
UniProt Q7LFL8: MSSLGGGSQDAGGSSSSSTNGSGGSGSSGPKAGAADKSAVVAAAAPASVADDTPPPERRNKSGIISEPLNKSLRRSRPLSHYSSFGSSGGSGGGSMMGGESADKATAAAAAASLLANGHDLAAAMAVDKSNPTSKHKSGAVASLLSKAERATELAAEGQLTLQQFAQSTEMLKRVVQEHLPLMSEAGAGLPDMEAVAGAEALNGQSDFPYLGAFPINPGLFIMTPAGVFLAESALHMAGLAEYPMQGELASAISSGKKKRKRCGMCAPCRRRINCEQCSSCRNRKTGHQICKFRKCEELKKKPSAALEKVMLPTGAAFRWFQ
UniProt Q8WYA6: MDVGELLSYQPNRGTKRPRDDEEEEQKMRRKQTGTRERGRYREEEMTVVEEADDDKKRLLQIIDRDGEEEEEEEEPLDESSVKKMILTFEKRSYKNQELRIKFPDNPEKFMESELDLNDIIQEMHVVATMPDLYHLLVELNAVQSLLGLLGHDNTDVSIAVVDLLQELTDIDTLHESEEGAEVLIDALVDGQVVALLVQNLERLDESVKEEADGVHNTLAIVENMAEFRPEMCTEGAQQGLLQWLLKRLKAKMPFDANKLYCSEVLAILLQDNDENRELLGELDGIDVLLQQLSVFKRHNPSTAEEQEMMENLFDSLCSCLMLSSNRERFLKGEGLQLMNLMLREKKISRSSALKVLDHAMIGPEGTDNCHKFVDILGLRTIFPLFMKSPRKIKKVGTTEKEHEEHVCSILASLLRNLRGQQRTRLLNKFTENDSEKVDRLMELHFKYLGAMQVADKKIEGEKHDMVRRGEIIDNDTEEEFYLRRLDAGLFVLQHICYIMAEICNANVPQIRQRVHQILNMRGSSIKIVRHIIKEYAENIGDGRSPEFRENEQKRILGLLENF
UniProt Q9BWK5: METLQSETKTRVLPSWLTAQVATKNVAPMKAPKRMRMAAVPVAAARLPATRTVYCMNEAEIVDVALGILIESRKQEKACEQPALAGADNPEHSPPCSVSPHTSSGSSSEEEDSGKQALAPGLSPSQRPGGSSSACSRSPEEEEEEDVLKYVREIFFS
UniProt Q05D32: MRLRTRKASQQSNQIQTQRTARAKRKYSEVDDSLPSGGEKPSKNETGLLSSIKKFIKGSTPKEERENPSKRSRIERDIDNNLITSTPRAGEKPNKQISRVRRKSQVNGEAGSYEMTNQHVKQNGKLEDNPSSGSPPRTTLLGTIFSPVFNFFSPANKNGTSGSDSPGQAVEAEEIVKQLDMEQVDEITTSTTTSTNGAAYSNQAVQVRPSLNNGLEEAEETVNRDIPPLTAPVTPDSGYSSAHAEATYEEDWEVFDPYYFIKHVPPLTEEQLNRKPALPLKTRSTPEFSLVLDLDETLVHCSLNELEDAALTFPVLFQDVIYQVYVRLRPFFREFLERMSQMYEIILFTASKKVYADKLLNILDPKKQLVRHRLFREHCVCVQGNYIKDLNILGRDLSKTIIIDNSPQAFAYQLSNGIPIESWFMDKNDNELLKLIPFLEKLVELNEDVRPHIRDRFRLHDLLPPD
UniProt Q14999: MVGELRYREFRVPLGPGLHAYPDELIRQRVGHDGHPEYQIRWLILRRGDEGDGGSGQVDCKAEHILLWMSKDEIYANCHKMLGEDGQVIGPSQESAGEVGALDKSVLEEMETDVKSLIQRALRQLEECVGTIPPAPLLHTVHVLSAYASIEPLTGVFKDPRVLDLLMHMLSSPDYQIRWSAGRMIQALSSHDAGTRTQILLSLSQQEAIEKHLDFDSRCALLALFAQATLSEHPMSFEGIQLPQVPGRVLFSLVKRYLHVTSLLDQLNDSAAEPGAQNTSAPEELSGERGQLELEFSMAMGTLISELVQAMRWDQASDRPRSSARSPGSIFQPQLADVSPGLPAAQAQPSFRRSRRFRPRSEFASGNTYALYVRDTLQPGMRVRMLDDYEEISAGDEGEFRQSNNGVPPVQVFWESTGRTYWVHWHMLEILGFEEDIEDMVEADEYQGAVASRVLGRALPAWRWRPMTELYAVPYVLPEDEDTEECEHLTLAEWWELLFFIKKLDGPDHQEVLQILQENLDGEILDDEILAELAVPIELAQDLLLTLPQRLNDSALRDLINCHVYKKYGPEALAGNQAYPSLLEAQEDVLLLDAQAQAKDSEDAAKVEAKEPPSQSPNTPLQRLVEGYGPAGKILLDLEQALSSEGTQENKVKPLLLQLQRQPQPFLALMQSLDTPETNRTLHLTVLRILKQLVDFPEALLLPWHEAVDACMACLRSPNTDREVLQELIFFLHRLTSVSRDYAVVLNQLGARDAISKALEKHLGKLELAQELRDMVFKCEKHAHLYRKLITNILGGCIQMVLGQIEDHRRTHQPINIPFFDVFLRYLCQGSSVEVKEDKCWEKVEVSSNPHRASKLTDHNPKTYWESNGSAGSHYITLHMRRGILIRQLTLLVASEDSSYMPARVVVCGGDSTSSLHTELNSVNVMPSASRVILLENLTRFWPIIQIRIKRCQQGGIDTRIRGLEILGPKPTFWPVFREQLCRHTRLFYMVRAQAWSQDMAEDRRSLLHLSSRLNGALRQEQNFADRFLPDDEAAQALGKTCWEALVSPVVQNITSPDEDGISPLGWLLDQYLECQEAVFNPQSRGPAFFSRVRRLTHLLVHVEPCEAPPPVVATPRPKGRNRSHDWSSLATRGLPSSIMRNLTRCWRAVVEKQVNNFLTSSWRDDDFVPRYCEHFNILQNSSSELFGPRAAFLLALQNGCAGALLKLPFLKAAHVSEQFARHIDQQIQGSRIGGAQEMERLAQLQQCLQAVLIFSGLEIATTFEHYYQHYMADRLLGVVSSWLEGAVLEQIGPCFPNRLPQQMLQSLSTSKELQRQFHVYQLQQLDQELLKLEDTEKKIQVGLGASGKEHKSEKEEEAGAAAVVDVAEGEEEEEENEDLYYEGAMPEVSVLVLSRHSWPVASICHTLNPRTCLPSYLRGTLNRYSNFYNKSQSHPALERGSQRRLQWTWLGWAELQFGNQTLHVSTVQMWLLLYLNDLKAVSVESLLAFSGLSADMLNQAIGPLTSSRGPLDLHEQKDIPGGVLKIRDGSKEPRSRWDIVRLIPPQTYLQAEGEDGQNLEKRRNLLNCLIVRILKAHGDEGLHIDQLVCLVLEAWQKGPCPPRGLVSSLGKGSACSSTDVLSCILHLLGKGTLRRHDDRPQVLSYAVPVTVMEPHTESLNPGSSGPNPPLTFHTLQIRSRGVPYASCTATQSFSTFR
UniProt Q8WV16: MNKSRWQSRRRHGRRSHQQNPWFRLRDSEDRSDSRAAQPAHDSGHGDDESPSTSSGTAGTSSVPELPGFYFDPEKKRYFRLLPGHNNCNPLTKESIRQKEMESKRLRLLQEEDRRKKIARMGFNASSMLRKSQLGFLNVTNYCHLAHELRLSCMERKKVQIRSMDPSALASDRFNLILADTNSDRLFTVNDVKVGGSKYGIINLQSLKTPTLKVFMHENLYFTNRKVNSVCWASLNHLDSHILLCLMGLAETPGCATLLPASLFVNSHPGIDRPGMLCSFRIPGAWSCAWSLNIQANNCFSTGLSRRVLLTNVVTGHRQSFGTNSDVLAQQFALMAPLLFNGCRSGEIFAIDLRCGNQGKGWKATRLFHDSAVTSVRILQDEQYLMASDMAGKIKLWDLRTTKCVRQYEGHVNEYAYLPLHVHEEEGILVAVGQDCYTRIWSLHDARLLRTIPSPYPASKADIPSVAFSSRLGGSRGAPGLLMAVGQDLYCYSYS
UniProt Q5H9S7: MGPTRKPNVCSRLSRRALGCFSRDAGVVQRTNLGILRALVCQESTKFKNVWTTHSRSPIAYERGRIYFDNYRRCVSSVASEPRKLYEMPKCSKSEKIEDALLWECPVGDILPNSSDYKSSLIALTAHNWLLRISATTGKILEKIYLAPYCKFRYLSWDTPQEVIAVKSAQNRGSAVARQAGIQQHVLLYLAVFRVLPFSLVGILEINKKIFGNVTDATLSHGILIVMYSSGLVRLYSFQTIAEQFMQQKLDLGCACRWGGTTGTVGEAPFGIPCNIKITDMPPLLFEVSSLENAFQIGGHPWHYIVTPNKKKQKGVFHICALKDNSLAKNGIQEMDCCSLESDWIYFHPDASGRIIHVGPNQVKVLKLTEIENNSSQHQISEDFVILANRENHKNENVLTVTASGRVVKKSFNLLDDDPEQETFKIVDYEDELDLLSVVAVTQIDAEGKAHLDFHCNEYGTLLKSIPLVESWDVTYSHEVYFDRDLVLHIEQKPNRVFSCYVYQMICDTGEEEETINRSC
UniProt Q9Y5B0: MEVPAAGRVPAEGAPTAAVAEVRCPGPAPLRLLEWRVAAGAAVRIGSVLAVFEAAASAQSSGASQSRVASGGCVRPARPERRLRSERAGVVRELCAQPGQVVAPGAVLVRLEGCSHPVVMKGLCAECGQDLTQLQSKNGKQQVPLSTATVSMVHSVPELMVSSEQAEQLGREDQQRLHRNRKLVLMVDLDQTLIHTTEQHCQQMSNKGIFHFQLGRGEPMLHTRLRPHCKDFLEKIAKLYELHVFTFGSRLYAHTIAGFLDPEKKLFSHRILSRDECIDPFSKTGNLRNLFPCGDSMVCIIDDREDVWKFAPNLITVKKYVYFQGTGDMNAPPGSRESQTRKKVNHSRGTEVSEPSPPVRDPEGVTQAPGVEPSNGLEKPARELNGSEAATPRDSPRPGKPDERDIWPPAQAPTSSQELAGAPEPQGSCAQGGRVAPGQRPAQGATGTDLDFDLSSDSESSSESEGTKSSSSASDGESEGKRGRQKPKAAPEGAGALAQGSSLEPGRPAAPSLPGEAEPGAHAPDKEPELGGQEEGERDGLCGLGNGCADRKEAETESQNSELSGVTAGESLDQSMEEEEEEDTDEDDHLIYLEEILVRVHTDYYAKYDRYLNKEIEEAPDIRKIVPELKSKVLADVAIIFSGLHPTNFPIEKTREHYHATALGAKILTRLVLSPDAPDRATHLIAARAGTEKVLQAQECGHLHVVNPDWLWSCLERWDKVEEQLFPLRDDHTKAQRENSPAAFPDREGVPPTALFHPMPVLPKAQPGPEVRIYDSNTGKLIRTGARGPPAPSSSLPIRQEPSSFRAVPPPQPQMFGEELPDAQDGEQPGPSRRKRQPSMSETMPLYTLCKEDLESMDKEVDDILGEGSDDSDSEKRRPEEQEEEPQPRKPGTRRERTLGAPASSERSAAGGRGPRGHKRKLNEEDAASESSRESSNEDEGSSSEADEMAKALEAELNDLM

Assays:
Test in all cases: log2 fold change, soluble protein after heating vs DMSO (PISA); higher = thermal stabilisation; K562 cells, 10 uM, 30 min; active = over 0.2 and 3.5 SD of the protein, either way, in both replicates (recomputed)
[1] = compound: C/C(=N\NC(=O)C1=CC(=CC=C1)S(=O)(=O)N2CCOCC2)/C3=C(C=CC(=C3)Cl)O
Procedure, shortened: (§1)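 K562 cells at 2×10^6 cells/mL were given 10 μM compound for 30 min. Aliquots then went through 3 min of heating across 48°C-58°C, were pooled, and were extracted in PBS with 0.5% NP-40 at 4°C, and the supernatant after 21,000xg for 90 min was quantified by TMTpro 16plex LC-MS/MS with channel sums equalised. Thermal stability relative to control samples, from duplicates, is given as log2 fold change.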

[2] = compound: C1=CC(=C(C=C1Cl)C2=NC3=NC=CN=C3C(=N2)NC4=CC=NC=C4)F
Procedure, shortened: as §1

[3] = compound: C1=CC2=C(C=CC(=C2)/C=C\3/C(=O)NC(=NCC4=CC=CS4)S3)N=C1
Procedure, shortened: as §1

[4] = compound: C1=CC=C(C=C1)C2=NC(=C(N2)C3=CC=NC=C3)C4=CC(=C(C=C4)Cl)O
Procedure, shortened: as §1

[5] = compound: C1=CC=C2C(=C1)C3=NNC4=CC=CC(=C43)C2=O
Procedure, shortened: as §1

[6] = compound: C1CCN(C1)C(=O)NC2=CC=CC(=C2)NC3=NC=C(C(=N3)NCCC4=CN=CN4)Br
Procedure, shortened: as §1

[7] = compound: C1CN(CCC1(CC2=CC=C(C=C2)Cl)N)C3=NC=NC4=C3C=CN4
Procedure, shortened: as §1

erlotinib = compound: C#Cc1cccc(Nc2ncnc3cc(OCCOC)c(OCCOC)cc23)c1 [erlotinib]
Procedure, shortened: as §1

[8] = compound: C1=CC(=CC=C1C2=NC3=C(N2)C=C(C=C3)C(=O)N)OC4=CC=C(C=C4)Cl
Procedure, shortened: as §1

[9] = compound: C1=CC2=NC=CN=C2C=C1/C=C/3\C(=O)NC(=O)S3
Procedure, shortened: as §1

Measured: log2 fold change

CXorf40B (UniProt Q96DE9)
inactive: [1] 0.057 | [2] 0.027 | [3] 0.113 | [4] 0.039 | [5] -0.221

CTSS (UniProt P25774)
inactive: [4] -0.215 | [6] 0.144 | [7] 0.545

CTSF (UniProt Q9UBX1)
inactive: erlotinib -0.034 | [2] -0.133 | [8] 0.116

CTPS1 isoform 2 (UniProt P17812)
inactive: [1] -0.256 | [3] 0.274 | [5] -0.181

CST4 (UniProt P01036)
inactive: [9] -0.217

DCUN1D4 isoform 3 (UniProt Q92564)
inactive: [1] 0.148 | [2] 0.097 | [3] 0.04 | [5] 0.037 | [6] 0.047 | [7] 0.082

CXXC1 isoform 2 (UniProt Q9P0U4)
inactive: [1] -0.013 | [3] 0.122 | [5] -0.016 | [6] 0.081 | [7] 0.042

CXCL14 (UniProt O95715)
inactive: [9] -0.117

CXXC5 (UniProt Q7LFL8)
inactive: erlotinib 0.044 | [2] -0.162 | [8] -0.1 | [4] 0.116

CST6 (UniProt Q15828)
inactive: [2] -0.041 | [6] -0.009 | [7] -0.269

CSRP2 (UniProt Q16527)
inactive: [1] 0.003 | [3] -0.07 | [4] -0.125 | [5] -0.03 | [6] 0.016 | [7] 0.061

CTNNBL1 (UniProt Q8WYA6)
inactive: [9] -0.032

CTR9 (UniProt Q6PD62)
inactive: erlotinib 0.036 | [2] -0.143 | [8] 0.272 | [4] -0.136

DBNDD1 isoform 3 (UniProt Q9H9R9)
inactive: erlotinib 0.184 | [2] 0.093 | [8] -0.508

DCBLD2 isoform 2 (UniProt Q96PD2)
inactive: [1] 0.348 | [3] -0.292 | [5] 0.232

CWF19L2 (UniProt Q2TBE0)
inactive: erlotinib 0.004 | [1] 0.056 | [8] 0.038 | [3] 0.03 | [4] -0.132 | [5] -0.014 | [6] 0.017 | [7] -0.04

CYREN (UniProt Q9BWK5)
inactive: erlotinib -0.027 | [8] 0.112 | [4] 0.027

CYBRD1 (UniProt Q53TN4)
inactive: erlotinib 0.086 | [1] 0.031 | [8] 0.069 | [3] -0.078 | [4] -0.076 | [5] -0.022

DCUN1D5 (UniProt Q9BTE7)
inactive: [1] -0.174 | [3] 0.038 | [4] -0.097 | [5] -0.134 | [6] -0.012 | [7] -0.04

CTDSPL2 (UniProt Q05D32)
inactive: [1] 0.042 | [2] 0.064 | [3] -0.242 | [5] 0.055

CYREN isoform 4 (UniProt Q9BWK5)
inactive: [1] -0.191 | [3] 0.05 | [9] -0.013 | [5] -0.071

CTBP1 (UniProt E7ESU7)
inactive: erlotinib 0.124 | [8] 0.004

DCP2 (UniProt Q8IU60)
inactive: [1] 0.176 | [2] -0.117 | [3] -0.118 | [4] 0.021 | [5] -0.073 | [6] -0.134 | [7] -0.064

DCP1B (UniProt Q8IZD4)
inactive: [9] 0.079 | [6] -0.164 | [7] -0.197

CUL7 isoform 2 (UniProt Q14999)
inactive: erlotinib -0.148 | [2] -0.189 | [8] 0.113 | [4] -0.114 | [6] -0.011 | [7] 0.128

Looked up one by one from the list above (2):
CYBRD1 (UniProt Q53TN4)
inactive: erlotinib 0.086 | [1] 0.031 | [8] 0.069 | [3] -0.078 | [4] -0.076 | [5] -0.022

CYREN isoform 4 (UniProt Q9BWK5)
inactive: [1] -0.191 | [3] 0.05 | [9] -0.013 | [5] -0.071

Later entries:

DAAM2 (UniProt Q86T65)
inactive: erlotinib -0.121 | [2] -0.123 | [8] 0.093 | [9] -0.136 | [4] -0.209

CYTH1 (UniProt Q15438)
inactive: [1] 0.169 | [2] 0.023 | [3] 0.012 | [5] -0.061 | [6] -0.133 | [7] -0.025

CYP2R1 (UniProt Q6VVX0)
inactive: [9] 0.053 | [6] 0.073 | [7] 0.081

CTIF (UniProt O43310)
inactive: [2] -0.056 | [4] -0.457 | [6] -0.019 | [7] -0.103

DCAF4 (UniProt Q8WV16)
inactive: [2] 0.009 | [4] -0.15

DCAF17 (UniProt Q5H9S7)
inactive: [2] 0.015

DAPK1 isoform 3 (UniProt P53355)
inactive: [2] -0.496 | [9] 0.146 | [4] -0.331

CTDSP1 (UniProt Q9GZU7)
inactive: erlotinib -0.064 | [8] 0.049 | [4] -0.069 | [6] -0.05 | [7] -0.221

CTDP1 (UniProt Q9Y5B0)
inactive: erlotinib -0.059 | [2] 0.056 | [8] 0.03 | [6] -0.033 | [7] -0.139
